The supplement of paper PMC4604168 (melanoma cell lines)
Some of the results follow. Many values rest on one well or one pass, so single values are uncertain.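 Imaging used 1,536-well plates; nuclei positive for cleaved PARP by antibody were divided by total DNA-stained nuclei to yield the apoptosis fraction. Doses for screening kept most cells viable, and cell lines differ markedly in resting and induced cleaved-PARP levels.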

Assays:
Assay in all cases: cleaved PARP positive nuclei fraction relative to DMSO control; melanoma cells; higher = more apoptosis
Conditions in all cases: library dose: low library concentration; 72 h
MZ2-MEL = test system: MZ2-MEL
MeWo = test system: MeWo
RPMI7951 = test system: RPMI7951
RVH-421 = test system: RVH-421
SkMel28 = test system: SkMel28
SkMel2 = test system: SkMel2
SkMel30 = test system: SkMel30
SkMel5 = test system: SkMel5
UACC257 = test system: UACC257
UACC62 = test system: UACC62

SMILES | cleaved PARP positive nuclei fraction (MZ2-MEL) [%] | cleaved PARP positive nuclei fraction (MeWo) [%] | cleaved PARP positive nuclei fraction (RPMI7951) [%] | cleaved PARP positive nuclei fraction (RVH-421) [%] | cleaved PARP positive nuclei fraction (SkMel28) [%] | cleaved PARP positive nuclei fraction (SkMel2) [%] | cleaved PARP positive nuclei fraction (SkMel30) [%] | cleaved PARP positive nuclei fraction (SkMel5) [%] | cleaved PARP positive nuclei fraction (UACC257) [%] | cleaved PARP positive nuclei fraction (UACC62) [%]
C[C@@H](N)c1ccc(C(=O)Nc2ccnc3[nH]ccc23)cc1 + Oc1cc(-c2nc(-c3ccccc3)[nH]c2-c2ccncc2)ccc1Cl [L779450] (first compound 0.4 µM, partner dose 0.2 µM) | 191 | 21.1 | 100 | 223 | 451 | 61.4 | 59.9 | 167 | 200 | 301
CC1(C)CCC(c2ccc(Cl)cc2)=C(CN2CCN(c3ccc(C(=O)NS(=O)(=O)c4ccc(N[C@H](CCN5CCOCC5)CSc5ccccc5)c(S(=O)(=O)C(F)(F)F)c4)cc3)CC2)C1 + OCc1c[nH]c2ccccc12 [Indole-3-carbinol] (first compound 0.4 µM, partner dose 0.8 µM) | 222 | 567 | 86.5 | 27.4 | 46.2 | 113 | 85.4 | – | – | 83.5
CN(c1ncccc1CNc1nc(Nc2ccc3c(c2)CC(=O)N3)ncc1C(F)(F)F)S(C)(=O)=O + Oc1nc(-c2ccc(C(F)(F)F)cc2)nc2c1CSCC2 [XAV939] (first compound 0.08 µM, partner dose 2 µM) | 47.7 | 172 | 39.6 | 137 | 108 | 115 | 42.6 | 208 | 487 | 64.8
CS(=O)(=O)c1ccc(C(=O)Nc2ccc(Cl)c(-c3ccccn3)c2)c(Cl)c1 [vismodegib] + COCC[n+]1c2c(n(Cc3cnccn3)c1C)C(=O)c1ccccc1C2=O [YM155] (first compound 1 µM, partner dose 0.0004 µM) | 4510 | 199 | 51.3 | 100 | 57.9 | 57.8 | 80.3 | – | – | 52.2
CS(=O)(=O)c1ccc(C(=O)Nc2ccc(Cl)c(-c3ccccn3)c2)c(Cl)c1 [vismodegib] + Cc1cc(Nc2cc(N3CCN(C)CC3)nc(/C=C/c3ccccc3)n2)n[nH]1 [ENMD2076] (first compound 1 µM, partner dose 0.04 µM) | 94.7 | 47.1 | 294 | 333 | 35.7 | 66.3 | 54 | – | – | 256
CCN(CC)CCNC(=O)c1c(C)[nH]c(/C=C2\C(=O)Nc3ccc(F)cc32)c1C [sunitinib] + C=CCNC1=C2C[C@@H](C)C[C@H](OC)[C@H](O)[C@@H](C)/C=C(\C)[C@H](OC(N)=O)[C@@H](OC)/C=C\C=C(/C)C(=O)NC(=CC1=O)C2=O [Tanespimycin] (first compound 0.4 µM, partner dose 0.002 µM) | 94 | 654 | 34.5 | 103 | 36.3 | 75.7 | 271 | – | – | 118
Cn1sc(=O)n(Cc2ccccc2)c1=O + Cc1cc(Nc2cc(N3CCN(C)CC3)nc(/C=C/c3ccccc3)n2)n[nH]1 [ENMD2076] (first compound 0.4 µM, partner dose 0.04 µM) | 117 | 38.8 | 67.1 | 100 | 40.1 | 75.9 | 86.1 | – | – | 42.3
CS(=O)(=O)c1ccc(C(=O)Nc2ccc(Cl)c(-c3ccccn3)c2)c(Cl)c1 [vismodegib] + Cc1cc([N+](=O)[O-])ccc1NS(=O)(=O)c1cc(Cl)ccc1Cl [FH535] (first compound 1 µM, partner dose 1 µM) | 85.8 | 118 | 98.9 | 92.4 | 109 | 69.1 | 70.8 | 87.7 | 135 | 72.2
COc1ccc(C2=N[C@@H](c3ccc(Cl)cc3)[C@@H](c3ccc(Cl)cc3)N2C(=O)N2CCNC(=O)C2)c(OC(C)C)c1 [Nutlin-3] + C=CCNC1=C2C[C@@H](C)C[C@H](OC)[C@H](O)[C@@H](C)/C=C(\C)[C@H](OC(N)=O)[C@@H](OC)/C=C\C=C(/C)C(=O)NC(=CC1=O)C2=O [Tanespimycin] (first compound 0.1 µM, partner dose 0.002 µM) | 60.8 | 104 | 113 | 38 | 80.3 | 56.9 | 49.5 | – | – | 72.2
NC(=O)c1ccc(N(C(N)=O)c2c(F)cccc2F)nc1-c1ccc(F)cc1F + CCN(CC)CCNC(=O)c1c(C)[nH]c(/C=C2\C(=O)Nc3ccc(F)cc32)c1C [sunitinib] (first compound 0.4 µM, partner dose 0.4 µM) | 83.2 | 23.7 | 77.8 | 187 | 38.9 | 32.7 | 91.3 | – | – | 89.3
Cn1sc(=O)n(Cc2ccccc2)c1=O + C#Cc1cccc(Nc2ncnc3cc(OCCOC)c(OCCOC)cc23)c1 [erlotinib] (first compound 0.4 µM, partner dose 0.8 µM) | 86.7 | 93.5 | 154 | 143 | 46.8 | 72.6 | 1140 | – | – | 51.3
CS(=O)(=O)c1ccc(C(=O)Nc2ccc(Cl)c(-c3ccccn3)c2)c(Cl)c1 [vismodegib] + Cn1c(Nc2ccc(C(F)(F)F)cc2)nc2cc(Oc3ccnc(-c4ncc(C(F)(F)F)[nH]4)c3)ccc21 [CHIR265] (first compound 1 µM, partner dose 0.08 µM) | 113 | 234 | 213 | 102 | 122 | 260 | 42.8 | – | – | 152
NC1(c2ccc(-c3nc4ccn5c(=O)[nH]nc5c4cc3-c3ccccc3)cc2)CCC1 + C=C(c1ccc(C(=O)O)cc1)c1cc2c(cc1C)C(C)(C)CCC2(C)C [Bexarotene] (first compound 0.4 µM, partner dose 2 µM) | 207 | 165 | 94.1 | 144 | 214 | 211 | 69 | – | – | 230
Cn1sc(=O)n(Cc2ccccc2)c1=O + Clc1ccc(Nc2nnc(Cc3ccncc3)c3ccccc23)cc1 [vatalanib] (first compound 0.4 µM, partner dose 2 µM) | 95.1 | 153 | 44.9 | 162 | 83.5 | 55.8 | 73.4 | – | – | 62.7
CC1(C)CCC(c2ccc(Cl)cc2)=C(CN2CCN(c3ccc(C(=O)NS(=O)(=O)c4ccc(N[C@H](CCN5CCOCC5)CSc5ccccc5)c(S(=O)(=O)C(F)(F)F)c4)cc3)CC2)C1 + COCC[n+]1c2c(n(Cc3cnccn3)c1C)C(=O)c1ccccc1C2=O [YM155] (first compound 0.4 µM, partner dose 0.0004 µM) | 988 | 510 | 589 | 101 | 82.8 | 76.1 | 146 | – | – | 75.6
CN(c1ncccc1CNc1nc(Nc2ccc3c(c2)CC(=O)N3)ncc1C(F)(F)F)S(C)(=O)=O + Cn1nnc2c(C(N)=O)ncn2c1=O [temozolomide] (first compound 0.08 µM, partner dose 2 µM) | 141 | 58.1 | 578 | 66.7 | 187 | 63.9 | 97.8 | – | – | 126
NC1(c2ccc(-c3nc4ccn5c(=O)[nH]nc5c4cc3-c3ccccc3)cc2)CCC1 + Cn1nnc2c(C(N)=O)ncn2c1=O [temozolomide] (first compound 0.4 µM, partner dose 2 µM) | 75.8 | 566 | 108 | 404 | 259 | 72.4 | 366 | – | – | 163
CC(=O)O[C@@]12CO[C@@H]1C[C@H](O)[C@@]1(C)C(=O)[C@H](O)C3=C(C)[C@@H](OC(=O)[C@H](O)[C@@H](NC(=O)OC(C)(C)C)c4ccccc4)C[C@@](O)([C@@H](OC(=O)c4ccccc4)[C@H]21)C3(C)C [Docetaxel] + Nc1cccc2c1CN(C1CCC(=O)NC1=O)C2=O [lenalidomide] (first compound 0.0001 µM, partner dose 1 µM) | 666 | 469 | 492 | 49.2 | 101 | 835 | 256 | – | – | 688
CN(c1ncccc1CNc1nc(Nc2ccc3c(c2)CC(=O)N3)ncc1C(F)(F)F)S(C)(=O)=O + O=C(O)c1ccc2c(c1)nc(Nc1cccc(Cl)c1)c1ccncc12 [CX4945] (first compound 0.08 µM, partner dose 0.4 µM) | 210 | 65.6 | 211 | 59.7 | 61.1 | 240 | 65.1 | – | – | 20.8
Cn1sc(=O)n(Cc2ccccc2)c1=O + CN(c1ncccc1CNc1nc(Nc2ccc3c(c2)CC(=O)N3)ncc1C(F)(F)F)S(C)(=O)=O [PF562271] (first compound 0.4 µM, partner dose 0.08 µM) | 58.6 | 93.7 | 81.2 | 169 | 36.9 | 32 | 188 | – | – | 61.8
CS(=O)(=O)c1ccc(C(=O)Nc2ccc(Cl)c(-c3ccccn3)c2)c(Cl)c1 [vismodegib] + C[C@]1(c2nc3c(C(N)=O)cccc3[nH]2)CCCN1 [Veliparib] (first compound 1 µM, partner dose 1.4 µM) | 74.1 | 48.2 | 124 | 63.1 | 40.1 | 126 | 21.5 | – | – | 111
CCCCCCCCc1ccc(CCC(N)(CO)CO)cc1 [fingolimod] + O=C(O)c1ccc(-c2c[nH]c3ncc(-c4ccccc4)cc23)cc1C1CCCC1 [GSK650394] (first compound 2 µM, partner dose 0.16 µM) | 146 | 32.2 | 179 | 56.1 | 59.9 | 69.1 | 66.4 | 78.7 | 80.2 | 94.2

Given tab-delimited: entries from further up.
SMILES	cleaved PARP positive nuclei fraction (MZ2-MEL) [%]	cleaved PARP positive nuclei fraction (MeWo) [%]	cleaved PARP positive nuclei fraction (RPMI7951) [%]	cleaved PARP positive nuclei fraction (RVH-421) [%]	cleaved PARP positive nuclei fraction (SkMel28) [%]	cleaved PARP positive nuclei fraction (SkMel2) [%]	cleaved PARP positive nuclei fraction (SkMel30) [%]	cleaved PARP positive nuclei fraction (SkMel5) [%]	cleaved PARP positive nuclei fraction (UACC257) [%]	cleaved PARP positive nuclei fraction (UACC62) [%]
NC(=O)c1ccc(N(C(N)=O)c2c(F)cccc2F)nc1-c1ccc(F)cc1F + CCN(CC)CCNC(=O)c1c(C)[nH]c(/C=C2\C(=O)Nc3ccc(F)cc32)c1C [sunitinib] (first compound 0.4 µM, partner dose 0.4 µM)	83.2	23.7	77.8	187	38.9	32.7	91.3	–	–	89.3
Cn1sc(=O)n(Cc2ccccc2)c1=O + C#Cc1cccc(Nc2ncnc3cc(OCCOC)c(OCCOC)cc23)c1 [erlotinib] (first compound 0.4 µM, partner dose 0.8 µM)	86.7	93.5	154	143	46.8	72.6	1140	–	–	51.3
CS(=O)(=O)c1ccc(C(=O)Nc2ccc(Cl)c(-c3ccccn3)c2)c(Cl)c1 [vismodegib] + Cn1c(Nc2ccc(C(F)(F)F)cc2)nc2cc(Oc3ccnc(-c4ncc(C(F)(F)F)[nH]4)c3)ccc21 [CHIR265] (first compound 1 µM, partner dose 0.08 µM)	113	234	213	102	122	260	42.8	–	–	152
NC1(c2ccc(-c3nc4ccn5c(=O)[nH]nc5c4cc3-c3ccccc3)cc2)CCC1 + C=C(c1ccc(C(=O)O)cc1)c1cc2c(cc1C)C(C)(C)CCC2(C)C [Bexarotene] (first compound 0.4 µM, partner dose 2 µM)	207	165	94.1	144	214	211	69	–	–	230
